Article PMC10005301, “Prediction of the n-Octanol/Water Partition Coefficients of Basic Compounds Using Multi-Parameter QSRR Models Based on IS-RPLC Retention Behavior in a Wide pH Range” (Molecules, 2023)

Tests used:
[1] = IS-RPLC retention on silica-based C18 column, logkw by linear solvent strength model; type: physicochemical; settings: methanol/20 mmol/L ammonium phosphate buffer, Welch Xtimate C18, 30 °C, 100% aqueous extrapolation
Description: (§1) The retention behavior of the 42 basic compounds (Table 1) were investigated at different ratios of methanol (φ = 0.7–0.1, the interval was 0.1 or 0.05 based on the retention of the investigated solutes). The logk values were plotted versus φ for each solute at pH 7.0, pH 8.0, pH 9.0, and pH 10.0. […] The logD values of the model compounds and verification compounds calculated using Equation (S3) based on the logP and pH values are also listed in Table 1.
The column temperature was set at 30 °C. Methanol and 20 mmol/L ammonium phosphate buffer (pH = 7.0, 8.0, 9.0, 10.0) was used as the mobile phase to perform isocratic elution. The injection volume was 10 µL and the detection wavelength for each eluted compound was set at its optimum absorption wavelength.
(§2) At each pH, the retention time (tR) of every analyte was determined for at least four different volume fractions (φ) of methanol. All the tR values of the solutes were obtained by averaging the results of at least three independent injections. The tR value was corrected using dual-point retention time correction (DP-RTC). For a detailed description of the process, refer to our previous work. For the different hydrophobicities of the studied compounds, benzene, toluene, and benzyl alcohol were used as anchor compounds in the DP-RTC method. The dead time t0 was determined using uracil. For each solute, the logarithm of k was plotted against φ, and logkw was obtained using the Equation (S1). The logD values of the model compounds were calculated using Equation (S3), and the logD–logkw models were established with Equation (S4). The statistical analysis for the regression model was accomplished using Origin 9.4. […]
Where, k is the capacity factor, φ is the volume fraction of organic modifier in the mobile phase, and S is the constant obtained by linear regression in the equations. […]
The Eqs. (S1) and (S2) are the basis for the determination of logP by revered- phase liquid chromatography (RPLC) method. For dissociative solutes, it has been confirmed by many studies that the logD calibrated from logP has a better linear correlation with logkw than logP. […]

[2] = From the text: as §1, §2

## Cc1cccc(N)n1 [2-Amino-6-methylpyridine]
[1]; pH 7.0
  logkw-pH 7.0: 0.99
[1]; pH 8.0
  logkw-pH 8.0: 1.13
[1]; pH 9.0
  logkw-pH 9.0: 1.19
[1]; pH 10.0
  logkw-pH 10.0: 1.27
[2]; pH 7
  logDpH 7.0: 0.53
[2]; pH 8
  logDpH 8.0: 0.98
